Results on five molecules are retold here after paper doi:10.1101/2023.09.13.557663.

These are yes or no findings as the source states them, for the method shown. Binding seen in cells or lysates may run through a third protein. A yes stands for co-enrichment or nearness to the bait. Other partners may have been found.

The labels stand for the following.
B1: HIP1 (protein, UniProt O00291 1-1037)
chain: MDRMASSMKQVPNPLPKVLSRRGVGAGLEAAERESFERTQTVSINKAINTQEVAVKEKHARTCILGTHHEKGAQTFWSVVNRLPLSSNAVLCWKFCHVFHKLLRDGHPNVLKDSLRYRNELSDMSRMWGHLSEGYGQLCSIYLKLLRTKMEYHTKNPRFPGNLQMSDRQLDEAGESDVNNFFQLTVEMFDYLECELNLFQTVFNSLDMSRSVSVTAAGQCRLAPLIQVILDCSHLYDYTVKLLFKLHSCLPADTLQGHRDRFMEQFTKLKDLFYRSSNLQYFKRLIQIPQLPENPPNFLRASALSEHISPVVVIPAEASSPDSEPVLEKDDLMDMDASQQNLFDNKFDDIFGSSFSSDPFNFNSQNGVNKDEKDHLIERLYREISGLKAQLENMKTESQRVVLQLKGHVSELEADLAEQQHLRQQAADDCEFLRAELDELRRQREDTEKAQRSLSEIERKAQANEQRYSKLKEKYSELVQNHADLLRKNAEVTKQVSMARQAQVDLEREKKELEDSLERISDQGQRKTQEQLEVLESLKQELATSQRELQVLQGSLETSAQSEANWAAEFAELEKERDSLVSGAAHREEELSALRKELQDTQLKLASTEESMCQLAKDQRKMLLVGSRKAAEQVIQDALNQLEEPPLISCAGSADHLLSTVTSISSCIEQLEKSWSQYLACPEDISGLLHSITLLAHLTSDAIAHGATTCLRAPPEPADSLTEACKQYGRETLAYLASLEEEGSLENADSTAMRNCLSKIKAIGEELLPRGLDIKQEELGDLVDKEMAATSAAIETATARIEEMLSKSRAGDTGVKLEVNERILGCCTSLMQAIQVLIVASKDLQREIVESGRGTASPKEFYAKNSRWTEGLISASKAVGWGATVMVDAADLVVQGRGKFEELMVCSHEIAASTAQLVAASKVKADKDSPNLAQLQQASRGVNQATAGVVASTISGKSQIEETDNMDFSSMTLTQIKRQEMDSQVRVLELENELQKERQKLGELRKKHYELAGVAEGWEEGTEASPPTLQEVVTEKE
B2: DOK1 (protein, UniProt Q99704 1-481)
chain: MDGAVMEGPLFLQSQRFGTKRWRKTWAVLYPASPHGVARLEFFDHKGSSSGGGRGSSRRLDCKVIRLAECVSVAPVTVETPPEPGATAFRLDTAQRSHLLAADAPSSAAWVQTLCRNAFPKGSWTLAPTDNPPKLSALEMLENSLYSPTWEGSQFWVTVQRTEAAERCGLHGSYVLRVEAERLTLLTVGAQSQILEPLLSWPYTLLRRYGRDKVMFSFEAGRRCPSGPGTFTFQTAQGNDIFQAVETAIHRQKAQGKAGQGHDVLRADSHEGEVAEGKLPSPPGPQELLDSPPALYAEPLDSLRIAPCPSQDSLYSDPLDSTSAQAGEGVQRKKPLYWDLYEHAQQQLLKAKLTDPKEDPIYDEPEGLAPVPPQGLYDLPREPKDAWWCQARVKEEGYELPYNPATDDYAVPPPRSTKPLLAPKPQGPAFPEPGTATGSGIKSHNSALYSQVQKSGASGSWDCGLSRVGTDKTGVKSEGST
B3: SH3BP1 (protein, UniProt Q9Y3L3 1-701)
chain: MMKRQLHRMRQLAQTGSLGRTPETAEFLGEDLLQVEQRLEPAKRAAHNIHKRLQACLQGQSGADMDKRVKKLPLMALSTTMAESFKELDPDSSMGKALEMSCAIQNQLARILAEFEMTLERDVLQPLSRLSEEELPAILKHKKSLQKLVSDWNTLKSRLSQATKNSGSSQGLGGSPGSHSHTTMANKVETLKEEEEELKRKVEQCRDEYLADLYHFVTKEDSYANYFIRLLEIQADYHRRSLSSLDTALAELRENHGQADHSPSMTATHFPRVYGVSLATHLQELGREIALPIEACVMMLLSEGMKEEGLFRLAAGASVLKRLKQTMASDPHSLEEFCSDPHAVAGALKSYLRELPEPLMTFDLYDDWMRAASLKEPGARLQALQEVCSRLPPENLSNLRYLMKFLARLAEEQEVNKMTPSNIAIVLGPNLLWPPEKEGDQAQLDAASVSSIQVVGVVEALIQSADTLFPGDINFNVSGLFSAVTLQDTVSDRLASEELPSTAVPTPATTPAPAPAPAPAPAPALASAATKERTESEVPPRPASPKVTRSPPETAAPVEDMARRTKRPAPARPTMPPPQVSGSRSSPPAPPLPPGSGSPGTPQALPRRLVGSSLRAPTVPPPLPPTPPQPARRQSRRSPASPSPASPGPASPSPVSLSNPAQVDLGAATAEGGAPEAISGVPTPPAIPPQPRPRSLASETN
B4: UBAP1 (protein, UniProt Q9NZ09 1-502)
chain: MASKKLGADFHGTFSYLDDVPFKTGDKFKTPAKVGLPIGFSLPDCLQVVREVQYDFSLEKKTIEWAEEIKKIEEAEREAECKIAEAEAKVNSKSGPEGDSKMSFSKTHSTATMPPPINPILASLQHNSILTPTRVSSSATKQKVLSPPHIKADFNLADFECEEDPFDNLELKTIDEKEELRNILVGTTGPIMAQLLDNNLPRGGSGSVLQDEEVLASLERATLDFKPLHKPNGFITLPQLGNCEKMSLSSKVSLPPIPAVSNIKSLSFPKLDSDDSNQKTAKLASTFHSTSCLRNGTFQNSLKPSTQSSASELNGHHTLGLSALNLDSGTEMPALTSSQMPSLSVLSVCTEESSPPNTGPTVTPPNFSVSQVPNMPSCPQAYSELQMLSPSERQCVETVVNMGYSYECVLRAMKKKGENIEQILDYLFAHGQLCEKGFDPLLVEEALEMHQCSEEKMMEFLQLMSKFKEMGFELKDIKEVLLLHNNDQDNALEDLMARAGAS
B5: USP8 (protein, UniProt P40818 1-1118)
chain: MPAVASVPKELYLSSSLKDLNKKTEVKPEKISTKSYVHSALKIFKTAEECRLDRDEERAYVLYMKYVTVYNLIKKRPDFKQQQDYFHSILGPGNIKKAVEEAERLSESLKLRYEEAEVRKKLEEKDRQEEAQRLQQKRQETGREDGGTLAKGSLENVLDSKDKTQKSNGEKNEKCETKEKGAITAKELYTMMTDKNISLIIMDARRMQDYQDSCILHSLSVPEEAISPGVTASWIEAHLPDDSKDTWKKRGNVEYVVLLDWFSSAKDLQIGTTLRSLKDALFKWESKTVLRNEPLVLEGGYENWLLCYPQYTTNAKVTPPPRRQNEEVSISLDFTYPSLEESIPSKPAAQTPPASIEVDENIELISGQNERMGPLNISTPVEPVAASKSDVSPIIQPVPSIKNVPQIDRTKKPAVKLPEEHRIKSESTNHEQQSPQSGKVIPDRSTKPVVFSPTLMLTDEEKARIHAETALLMEKNKQEKELRERQQEEQKEKLRKEEQEQKAKKKQEAEENEITEKQQKAKEEMEKKESEQAKKEDKETSAKRGKEITGVKRQSKSEHETSDAKKSVEDRGKRCPTPEIQKKSTGDVPHTSVTGDSGSGKPFKIKGQPESGILRTGTFREDTDDTERNKAQREPLTRARSEEMGRIVPGLPSGWAKFLDPITGTFRYYHSPTNTVHMYPPEMAPSSAPPSTPPTHKAKPQIPAERDREPSKLKRSYSSPDITQAIQEEEKRKPTVTPTVNRENKPTCYPKAEISRLSASQIRNLNPVFGGSGPALTGLRNLGNTCYMNSILQCLCNAPHLADYFNRNCYQDDINRSNLLGHKGEVAEEFGIIMKALWTGQYRYISPKDFKITIGKINDQFAGYSQQDSQELLLFLMDGLHEDLNKADNRKRYKEENNDHLDDFKAAEHAWQKHKQLNESIIVALFQGQFKSTVQCLTCHKKSRTFEAFMYLSLPLASTSKCTLQDCLRLFSKEEKLTDNNRFYCSHCRARRDSLKKIEIWKLPPVLLVHLKRFSYDGRWKQKLQTSVDFPLENLDLSQYVIGPKNNLKKYNLFSVSNHYGGLDGGHYTAYCKNAARQRWFKFDDHEVSDISVSSVKSSAAYILFYTSLGPRVTDVAT

In this experiment the target is wtEGFR-TurboID (transient, HEK293T) (UniProt P00533). The experiment in a line: proximity labelling.
For B1, the binding entry was “binds”.
As for B2, the entry is “binds”.
For B3, the binding result was “binds”.
As for B4, the entry is “binds”; as for B5, “binds”.
